Some results were stated once for a whole list of compounds, not compound by compound.
Columns and labels:
[1] = system: Venturia inaegualis on apples; assay: Residual protective activity against Venturia inaegualis on apples (scab on apple); format: in vivo; conditions: 0.02% active substance, spray; apple seedlings cv. McIntosh inoculated 1 day after application
Botrytis cinerea/tomato = assay: Effect against Botrytis cinerea/tomato (Botrytis on tomatoes); format: in vivo; conditions: 0.02% active substance, spray; tomato cv. Roter Gnom inoculated 2 days after application; assessed after 4 days incubation
[2] = system: Pyrenophora teres (Helminthosporium)/barley; assay: Effect against Pyrenophora teres (Helminthosporium)/barley (net blotch on barley); format: in vivo; conditions: 0.02% active substance, spray; barley cv. Regina inoculated 2 days after application; assessed after 2 days incubation
Septoria nodorum/wheat = assay: Effect against Septoria nodorum/wheat (Septoria leaf spot on wheat); format: in vivo; conditions: 0.02% active substance, spray; wheat cv. Arina inoculated 1 day after application; assessed 8 days after inoculation
[3] = system: Erysiphe graminis on barley; conditions: 0.02% active substance, spray; barley cv. Regina; evaluated 6 days after infection

COCC(C)Nc1cc(-c2ccnc(Nc3cccc(Cl)c3)c2)ccn1 (centres unmarked) [Compound A1.10, N*2′*-(3-Chloro-phenyl)-N*2*-(2-methoxy-1-methyl-ethyl)-[4,4′]bipyridinyl-2,2′-diamine]
control of the fungal infection [1]: over 70% | control of the fungal infection (Botrytis cinerea/tomato): over 70% | control of the fungal infection [2]: over 70% | control of the fungal infection (Septoria nodorum/wheat): Over 70% | control of the fungal infection [3]: over 70%
